Results are given in words; binding and its absence hold for the method and conditions named. Some results given as binding are weak or reduced against the parent protein; the word gives no strength.
Assays:
Test in all cases: ELISA; competition ELISA: MaxiSorp plates coated with human VSIG3, VSIG8 or LRIG1; h-VISTA-ECD-Fc-Avi-tag pre-incubated 1 h at room temperature with KVA12123 or isotype control, then 2 h on the plate; pH 7.4 dilution and wash buffers; streptavidin-HRP; both purified
human LRIG1 (human) = molecular target: T1, human LRIG1 (human) (UniProt Q96JA1)
T1 sequence: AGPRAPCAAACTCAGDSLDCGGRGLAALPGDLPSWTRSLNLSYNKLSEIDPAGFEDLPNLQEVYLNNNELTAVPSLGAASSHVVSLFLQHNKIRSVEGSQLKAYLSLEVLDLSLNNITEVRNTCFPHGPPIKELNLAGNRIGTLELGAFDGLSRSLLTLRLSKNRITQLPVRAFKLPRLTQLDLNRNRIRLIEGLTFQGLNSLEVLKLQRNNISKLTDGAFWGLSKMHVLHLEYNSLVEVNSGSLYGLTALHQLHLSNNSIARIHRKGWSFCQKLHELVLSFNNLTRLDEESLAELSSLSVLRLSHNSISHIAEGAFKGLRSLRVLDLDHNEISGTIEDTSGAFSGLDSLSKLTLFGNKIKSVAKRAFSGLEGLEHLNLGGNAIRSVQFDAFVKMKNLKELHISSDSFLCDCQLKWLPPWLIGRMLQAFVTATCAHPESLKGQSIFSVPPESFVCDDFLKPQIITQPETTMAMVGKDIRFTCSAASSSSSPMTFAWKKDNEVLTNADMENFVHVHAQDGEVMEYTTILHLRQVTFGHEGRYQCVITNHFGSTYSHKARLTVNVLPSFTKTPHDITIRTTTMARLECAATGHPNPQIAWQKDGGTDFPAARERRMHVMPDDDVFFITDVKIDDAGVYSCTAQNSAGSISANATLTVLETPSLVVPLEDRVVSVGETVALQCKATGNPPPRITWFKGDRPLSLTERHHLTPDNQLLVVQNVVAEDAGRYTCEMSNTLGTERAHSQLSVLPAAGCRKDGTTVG

The chains behind the UniProt entries cited, without tags or fusion partners. Residues count along the entry.
UniProt Q9H7M9, residues 33-194: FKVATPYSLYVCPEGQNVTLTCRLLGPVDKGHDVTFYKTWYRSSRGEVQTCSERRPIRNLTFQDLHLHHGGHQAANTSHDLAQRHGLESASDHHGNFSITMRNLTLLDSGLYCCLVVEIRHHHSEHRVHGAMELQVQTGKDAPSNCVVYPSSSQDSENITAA

human VSIG3 (human) = molecular target: T2, human VSIG3 (human) (UniProt Q5DX21)
T2 sequence: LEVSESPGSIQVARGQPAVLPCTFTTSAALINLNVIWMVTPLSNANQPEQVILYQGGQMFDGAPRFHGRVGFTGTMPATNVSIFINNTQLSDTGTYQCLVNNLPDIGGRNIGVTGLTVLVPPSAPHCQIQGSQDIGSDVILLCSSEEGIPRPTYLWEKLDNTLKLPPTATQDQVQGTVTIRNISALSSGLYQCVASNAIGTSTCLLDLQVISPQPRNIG

human VSIG8 (human) = molecular target: T3, human VSIG8 (human) (UniProt P0DPA2)
T3 sequence: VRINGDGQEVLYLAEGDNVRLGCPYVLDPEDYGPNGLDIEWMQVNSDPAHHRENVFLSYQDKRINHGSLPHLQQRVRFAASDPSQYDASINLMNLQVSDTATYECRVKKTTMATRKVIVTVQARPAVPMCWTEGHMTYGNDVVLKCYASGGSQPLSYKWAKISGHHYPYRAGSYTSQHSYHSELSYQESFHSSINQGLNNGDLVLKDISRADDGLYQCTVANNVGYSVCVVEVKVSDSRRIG

Measured: binding

h-VISTA-ECD-Fc-Avi-tag (from UniProt Q9H7M9 33-194) (Fc fusion)
binds: all assays above

— paper PMC10751915
